# Assay results as given in article PMC5996148.
# Some of the results follow.
# What was measured:
# Assay in all cases: protein microarray (ProtoArray v5.0), streptavidin-Alexa Fluor 647
# Settings in all cases: 3'-biotin; 20 mM Tris (pH 7.5), 5 mM MgCl2, 100 mM KCl, 0.1% Tween-20, A/T-rich and random oligonucleotide blockers; temperature not stated; high values mean tight binding
# EPO (human) = tested on: EPO (human)
# ERAS (human) = tested on: ERAS (human)
# ERBB2IP (human) = tested on: ERBB2IP (human)
# ERC1 (human) = tested on: ERC1 (human)
# ERCC1 (human) = tested on: ERCC1 (human)
# ERCC6L (human) = tested on: ERCC6L (human)
# ERG (human) = tested on: ERG (human)
# ERGIC1 (human) = tested on: ERGIC1 (human)
# ERGIC3 (human) = tested on: ERGIC3 (human)
# ERP29 (human) = tested on: ERP29 (human)
sequence,measurement,setting,value
GGGAGGCTGAGGCAGG [G4-1 biotinylated (PQS2)],binding signal,EPO (human),-0.283 z-score
same,binding signal,ERAS (human),-0.299 z-score
same,binding signal,ERBB2IP (human),-0.301 z-score
same,binding signal,ERC1 (human),-0.261 z-score
same,binding signal,ERCC1 (human),-0.349 z-score
same,binding signal,ERCC6L (human),-0.352 z-score
same,binding signal,ERG (human),-0.337 z-score
same,binding signal,ERGIC1 (human),-0.34 z-score
same,binding signal,ERGIC3 (human),-0.317 z-score
same,binding signal,ERP29 (human),-0.308 z-score

# As a working copy, some entries already given:
sequence,measurement,setting,value
GGGAGGCTGAGGCAGG [G4-1 biotinylated (PQS2)],binding signal,ERGIC3 (human),-0.317 z-score
same,binding signal,ERP29 (human),-0.308 z-score
